# Laboratory results taken from article PMC6925144, “A prospective compound screening contest identified broader inhibitors for Sirtuin 1” (Scientific Reports, 2019).
# Sequences of proteins named here, by UniProt entry; tags and fusion partners are left off. Residues count along the entry.
# UniProt Q96EB6, 2-747 limits assumed: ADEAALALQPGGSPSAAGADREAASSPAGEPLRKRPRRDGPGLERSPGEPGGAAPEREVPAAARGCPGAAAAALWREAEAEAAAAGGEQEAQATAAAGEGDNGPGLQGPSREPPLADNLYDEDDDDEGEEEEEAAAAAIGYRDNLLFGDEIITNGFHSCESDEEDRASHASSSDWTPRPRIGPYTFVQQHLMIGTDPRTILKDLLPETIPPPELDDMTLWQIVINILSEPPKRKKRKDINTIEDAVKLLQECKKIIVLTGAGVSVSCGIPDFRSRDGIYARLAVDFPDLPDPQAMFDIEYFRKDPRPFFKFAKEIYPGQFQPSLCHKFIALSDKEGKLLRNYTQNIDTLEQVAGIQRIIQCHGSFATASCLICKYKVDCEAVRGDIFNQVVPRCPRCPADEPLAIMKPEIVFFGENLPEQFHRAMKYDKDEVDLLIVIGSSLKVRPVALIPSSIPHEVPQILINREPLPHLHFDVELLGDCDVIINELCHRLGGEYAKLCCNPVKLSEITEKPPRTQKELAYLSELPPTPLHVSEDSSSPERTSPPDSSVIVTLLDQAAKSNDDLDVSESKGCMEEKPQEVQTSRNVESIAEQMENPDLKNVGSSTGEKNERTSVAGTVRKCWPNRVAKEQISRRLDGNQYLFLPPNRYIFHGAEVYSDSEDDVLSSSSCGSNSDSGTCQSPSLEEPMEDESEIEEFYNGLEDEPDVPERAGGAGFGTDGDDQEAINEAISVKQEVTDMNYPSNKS
# Over roughly 3,200 compounds, “TSA(with NAD+) / Primary screening (TSA) / delta Tm (K)” has its median near -0.04; the highest 2% begin near 0.37. The list shows a part of the results.
# Biological target: NAD-dependent deacetylase Sirtuin 1 (human, UniProt Q96EB6)
# Experiment: primary screen, delta tm
# Design: single well (n = 1, as 'the same TSA')
# Conditions: 10 µM
row,Structure (SMILES),TSA(with NAD+) / Primary screening (TSA) / delta Tm (K)
1,Cc1ccc(N(C)S(=O)(=O)c2cccc(C(=O)Nc3ncc(C)s3)c2)cc1,-0.06
2,COc1cccc(NC(=O)c2cccc(S(=O)(=O)N(C)c3ccc(C)cc3)c2)c1,-0.06
3,O=C(NC1CC1)C1CCCN1C(=O)c1n[nH]c2ccccc12 (stereo not shown),-0.06
4,CC(=O)N1CCCc2cc(S(=O)(=O)Nc3cccc4ccccc34)ccc21,-0.11
5,Cc1ccc(C)c(NC(=O)COc2ccc3c4c(c(=O)oc3c2)CCC4)c1,-0.14
6,Cc1cn2c3c(=O)n(CCC(C)C)c(=O)n(C)c3nc2n1CCC(C)C,-0.02
7,O=C(CN1CCN(C(=O)CCc2c[nH]c3ccccc23)CC1)Nc1ccccc1,-0.09
8,NC(=O)C1CCCN(C(=O)c2cc3c(Cl)c(Cl)ccc3[nH]2)C1 (stereo not shown),-0.08
9,NCC(Cc1ccccn1)C(=O)O (stereo not shown),-0.11
10,Cc1ccc(NC(=O)NCCc2cccc(O)c2)cc1NC(=O)NCCc1cccc(O)c1,0.32
11,Cc1ccc(N(C)S(=O)(=O)c2cccc(C(=O)Nc3ccccc3Cl)c2)cc1,-0.13
12,NC(=O)C1CCN(c2ncnc3sc4c(c23)CCCCC4)CC1,0.26
13,CCC(CNC(=O)NCc1noc(C)n1)N1CCc2ccccc2C1 (stereo not shown),0.02
14,CC1CN(C(=O)CC23CC4CC(CC(O)(C4)C2)C3)CC(c2ccccc2)O1 (stereo not shown),-0.06
15,CNC(=O)CCN(C)S(=O)(=O)c1cccc(Br)c1,0.01
16,Cc1ccccc1NC(=O)CN1CC=C(c2c[nH]c3ccccc23)CC1,0.06
17,Cc1c(F)cc(C(N)=O)cc1NC(=O)c1sc2nc(C3CC3)nc(C)c2c1C,-0.01
18,COc1cc(CN(C)C(=O)Cn2[nH]c(=O)c3ccccc3c2=O)ccc1OCc1ccccc1,0.03
19,c1ccc(N2CCN(c3cc(C4CC4)nc4ncnn34)CC2)cc1,-0.01
20,O=C(c1ccccc1)N1CCN(C(=O)c2cccc3ccccc23)CC1,-0.02
21,CCS(=O)CCNC(=O)c1nc2ccccc2c(=O)[nH]1 (stereo not shown),-0.18
22,COc1ccc(C23CC4CC(CC(C(=O)NCc5ccc6c(c5)OCO6)(C4)C2)C3)cc1,-0.04
23,CCC(N)C(=O)NC (stereo not shown),-0.18

# Taken from the results shown, four compounds:
row,Structure (SMILES),TSA(with NAD+) / Primary screening (TSA) / delta Tm (K)
9,NCC(Cc1ccccn1)C(=O)O (stereo not shown),-0.11
10,Cc1ccc(NC(=O)NCCc2cccc(O)c2)cc1NC(=O)NCCc1cccc(O)c1,0.32
11,Cc1ccc(N(C)S(=O)(=O)c2cccc(C(=O)Nc3ccccc3Cl)c2)cc1,-0.13
12,NC(=O)C1CCN(c2ncnc3sc4c(c23)CCCCC4)CC1,0.26

# Continuation:

row,Structure (SMILES),TSA(with NAD+) / Primary screening (TSA) / delta Tm (K)
1,Cc1nc(-c2cccnc2)nc(NCC(O)c2ccsc2)c1C (stereo not shown),0.02
2,CC1CCN(CCCNC(=O)C2=NN(c3ccc(F)cc3)C(C(N)=O)C2)CC1 (stereo not shown),-0.12
3,O=C(CCSc1ncccn1)Nc1c(Cl)cccc1Cl,-0.03
4,COc1ccc(N(C)S(=O)(=O)c2cccc(C(=O)Nc3ccc4ccccc4c3)c2)cc1,0.65
5,NC(=O)c1cc(NC(=O)CN2CC=C(c3ccc(O)cc3)CC2)cc(C(N)=O)c1,-0.01
6,CC1OC1P(=O)([O-])[O-] (stereo not shown),-0.01
7,COc1ccc(C(=O)C2=C(O)C(=O)N(CCCN3CCOCC3)C2c2ccc(C)cc2)cc1 (stereo not shown),-0.04
8,COc1ccccc1C(C)Nc1cc(=O)n2ccccc2n1 (stereo not shown),-0.13
9,Cc1ccc(-c2nc(C(=O)NCCc3nnc4ccccn34)cs2)o1,0.01
10,O=C(Nc1cc(S(=O)(=O)N2CCOCC2)ccc1Oc1ccc(F)cc1)C1=COCCO1,-0.16
11,O=c1[nH]cnc2c1ncn2[C@H]1CC[C@@H](CO)O1,-0.06
12,CC(C)C(O)CCN (stereo not shown),-0.06
13,CN(Cc1nc2ccccc2s1)C(=O)CSc1nnc(CC2CCS(=O)(=O)C2)o1 (stereo not shown),-0.09
14,CC1CCN(c2ccc(NC(=O)N(C)Cc3cnccn3)cc2)C1 (stereo not shown),-0.02
15,O=C(CN1CCN(C(=O)c2ccccc2COc2ccccc2)CC1)Nc1ccccc1Cl,-0.03
16,NC(=O)C1CCN(C(=O)c2cc3ccc(Br)cc3[nH]2)C1 (stereo not shown),-0.03
17,COc1cccc(/C=N/c2cccc(C(N)=O)c2)c1O,-0.13
18,Cc1ccc(C2C(C(=O)c3cc4ccccc4o3)=C(O)C(=O)N2CCCN2CCOCC2)o1 (stereo not shown),0.05
19,COc1ccc(/C=C2/COc3ccc(Br)cc3C2=O)cc1OC(F)F,0.02
20,O=C1/C(=C/c2ccccc2[N+](=O)[O-])Oc2cc(O)ccc21,-0.06
21,CCN(CC)C(=O)CN1CCCN(CC(=O)Nc2sccc2C(N)=O)CC1,0.01
22,Cc1sc(NC(=O)C2CCN(c3ncc(C(F)(F)F)cc3Cl)CC2)c(C(N)=O)c1C,0.22
23,Cc1cc2cc(NC(=O)Cc3c(C)nc(-c4ccccn4)[nH]c3=O)ccc2[nH]1,0.03
